The values below come from PubChem BioAssay AID2685 (National Center for Advancing Translational Sciences (NCATS), 2010).

Some of the results follow. Further columns of the screen follow, without active or inactive calls. The list favours compounds with an active or inconclusive main result. The note in brackets gives the kind of curve behind each potency; many fits are weak.

For orientation: AC50 means the concentration at which the activity in the assay is half-maximal. The low end stands for greater potency, the high end for weaker potency.

A short description of the assay: qHTS Assay for Lipid Storage Modulators in Drosophila S3 Cells.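 For cell number change: cells counted by Cell Tracker Red CMTPX staining in the red channel.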 The settings on record: BODIPY lipid droplet fluorescence, 18-24 h; for cell number change: measured here: cell count max response, cells fed with added oleic acid. A digest of the protocol: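 Drosophila S3 cells loaded with oleic acid (400 uM, as added) and compounds at several concentrations; lipid droplets imaged by 488-nm laser-scanning cytometry, 500–530 nm intensity and object ratio to cell channel. Percent activity normalized to 20 uM Triacsin C.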
For orientation: In qHTS, concentration-response curves come from the screen itself.

[1] abbreviates: measured here: lipid fluorescence (Fed channel) AC50, cells fed with added oleic acid.
Setting [2] is: measured here: cell number channel AC50, cells fed with added oleic acid.

`CC1=CCC(C(=O)O)C(C(=O)Nc2nc3ccc(S(C)(=O)=O)cc3s2)C1` (stereo not given): the cell number change is -22.3%. In addition, the AC50 under setting [1] was 20.6 µM [falling, single point].
In the case of `COC(=O)[C@@H](Cc1c[nH]c2ccccc12)NC(=O)C1CCCN(S(=O)(=O)c2ccc(C)cc2)C1` (stereo not given in full), the cell number change was determined as 4.26%.
With `COc1ccc(CN2CC(C(=O)NCCC3=CCCCC3)CC2=O)cc1` (stereo not given), the cell number change is -14.6%. For the same compound, the AC50 under setting [1] was 16.4 µM [falling, single point].
With `COc1ccc(N2CCN(CCCNS(=O)(=O)c3ccc4c(c3)oc(=O)n4C)CC2)cc1`, the cell number change is -13.2%. In addition, the AC50 under setting [2] is 0.58 µM [rising, single point].
As to `Clc1ccc(OCCCn2ccnc2)c(Br)c1`, the cell number change is 6.35%. Also, the AC50 under setting [1] is 0.82 µM [rising, full curve].
Regarding `Cn1cc(CCCC(=O)NCc2ccccc2)c2ccccc21`, the cell number change is 9.93%.
On to `N#Cc1ccccc1OCC(=O)Nc1ccccc1C(=O)NC1CC1`, for which the cell number change was found to be 3.28%. Besides, the AC50 under setting [2] was 6.51 µM [falling, single point].
Turning to `COC(=O)c1cc2c(cc1[N+](=O)[O-])OCO2`, the cell number change came out at 59.3%. Besides, under setting [2], the AC50 was 25.9 µM [rising, single point]. Also, the AC50 under setting [1] was 29.1 µM [rising, single point].
For `NC(=O)C[C@@H]1N[C@]2(C(=O)Nc3ccccc32)[C@@H]2C(=O)N(c3cc(C(F)(F)F)ccc3Cl)C(=O)[C@H]12`, the cell number change turned out to be 5.61%. For the same compound, under setting [1], the AC50 was 4.11 µM [falling, single point].
In the case of `COc1ccc(CNC(=O)C(c2ccco2)N(C(=O)c2snc(C(N)=O)c2N)c2ccccc2OC)cc1` (stereo not given), the cell number change was -3.85%. Moreover, under setting [1], the AC50 was 29.1 µM [rising, partial curve, poor fit].
Turning to `CN1/C(=C\C(=O)CSc2ncn[nH]2)C(C)(C)c2ccccc21`, the cell number change worked out at 12.4%. For the same compound, the AC50 under setting [1] was 18.4 µM [rising, partial curve].
For the compound `COc1ccccc1CNC(=O)C(=O)NCC1CCCN1S(=O)(=O)c1cccs1` (stereo not given), the cell number change was -10.4%.
For `COc1ccc(-n2c(SC3CCOC3=O)nc3ccccc3c2=O)cc1Cl` (stereo not given), the cell number change was found to be 211%. Under setting [2], the AC50 is 18.4 µM [rising, partial curve]. The AC50 under setting [1] was 29.1 µM [rising, partial curve].
For the compound `COc1ccccc1-c1ccc(SCc2ccc(F)cc2)nn1`, the cell number change stood at 17.9%. For the same compound, under setting [2], the AC50 was 0.00461 µM [falling, full curve, poor fit].
Consider `Cc1cccc(N2CCN(C(=O)Cn3cccc3C(=O)c3ccccc3)CC2)c1C`, for which the cell number change was determined as 81%. Also, under setting [2], the AC50 is 20.6 µM [rising, single point]. Moreover, the AC50 under setting [1] is 0.82 µM [falling, single point].
For the compound `CCOC(=O)C=Nc1c(N)n(C)c(=O)n(C)c1=O`, the cell number change came out at 9.99%. Under setting [1], the AC50 was 29.1 µM [falling, single point].
For the compound `Nc1ccc(N2CCCCC2)c(Cl)c1`, the cell number change was -5.73%. Besides, under setting [1], the AC50 is 2.91 µM [falling, single point].
Take `Cc1cc(C)n2nc(C(=O)OCC(=O)NCc3ccccc3)nc2n1`: the cell number change came to 14.9%. In addition, the AC50 under setting [1] was 1.46 µM [falling, single point].
On to `COc1cccc(C(=O)NNC(=O)Cc2ccc(Cl)cc2)c1`, for which the cell number change is -36.2%. Further, the AC50 under setting [2] is 0.13 µM [falling, partial curve]. Further, the AC50 under setting [1] was 0.206 µM [falling, full curve, poor fit].
Regarding `COc1ccc(/C=N/Nc2ccc(C(F)(F)F)cc2[N+](=O)[O-])cc1O`, the cell number change is -24.9%. The AC50 under setting [1] is 0.651 µM [rising, partial curve, poor fit].
Regarding `Cc1ccc(S(=O)(=O)N(C)C)cc1NC(=O)c1ccccc1SCC(=O)N1CCCC1`, the cell number change is -2.06%.
On the same count and under the same terms, in the case of `COC(=O)c1nn(-c2ccccc2)nc1-c1nn(-c2ccccc2)nc1C(=O)OC` it was -12.6%.
`Cc1ccsc1/C=N/NC(=O)c1sccc1C`: the cell number change was -3.77%. The AC50 under setting [1] was 29.1 µM [falling, single point].
In the case of `O=C(c1ccc(Cl)nc1)N1CCc2ccccc2C1`, the cell number change was -1.52%.
Same read-out and setting: the value for `CC(C)CNC(=O)C(=O)Nc1cc2c3c(c1)C(C)C(=O)N3CCC2` (stereo not given) was -24.7%.
As for `CCOc1cc(CC(=O)N[C@@H](CC(C)C)c2ccccc2N2CCCCC2)ccc1C(=O)O`, the cell number change is -31.3%. Also, the AC50 under setting [2] was 20.6 µM [falling, single point]. Besides, the AC50 under setting [1] is 23.1 µM [falling, single point].
Turning to `CCN(CC(=O)Nc1c(F)cccc1F)C(=O)CN1c2cccc3cccc(c23)S1(=O)=O`, the cell number change was -40%. Besides, under setting [2], the half-maximal activity concentration (AC50) was 20.6 µM [falling, single point]. The AC50 under setting [1] is 7.31 µM [falling, partial curve].
Take `CCOc1ccc(-n2c(=S)sc3c(=O)[nH]c(SCC(=O)NCC4CCCO4)nc32)cc1` (stereo not given): the cell number change was -1.01%. For the same compound, the AC50 under setting [1] was 1.64 µM [rising, partial curve, poor fit].
As for `COc1ccc2oc(C(=O)Nc3ccc(C)cn3)c(C)c2c1`, the cell number change is 25%.
Same read-out and setting: in the case of `Cc1ccc(C(=O)N(Cc2sccc2C)C2CCS(=O)(=O)C2)cc1` (stereo not given) it was 7.13%.
On to `Cc1ccc(NC(=O)Cn2c(=O)c3cccn3c3ccccc32)cc1`, for which the cell number change came out at 49.2%. Further, the AC50 under setting [2] was 23.1 µM [rising, partial curve, poor fit]. Further, the concentration at half-maximal activity (AC50) under setting [1] is 23.1 µM [falling, single point].
Take `O=C(COC(=O)CSc1ccc(F)cc1)NNC(=O)c1ccc([N+](=O)[O-])cc1`: the cell number change came out at 6.74%. For the same compound, under setting [1], the AC50 was 20.6 µM [falling, partial curve, poor fit].
Regarding `O=C1c2ccccc2NC(c2ccc(-c3ccc(F)cc3)o2)N1O` (stereo not given), the cell number change was -24.6%.
The same measure, in the same setting: in the case of `O=C(O)C(Cc1c[nH]c2ccccc12)N1C(=O)c2ccccc2C1=O` (stereo not given) it was -4.27%.
With `Cc1cnc(C(=O)OC(C)C(=O)NCc2ccccc2)cn1` (stereo not given), the cell number change was -0.549%. Besides, the AC50 under setting [1] is 6.51 µM [falling, single point].
Regarding `Cc1cccn2c(=O)c3cc(C(=O)N4CCN(Cc5ccccc5)CC4)sc3nc12`, the cell number change worked out at 36.6%. Moreover, under setting [2], the AC50 is 29.1 µM [rising, single point]. Besides, the AC50 under setting [1] was 25.9 µM [rising, partial curve, poor fit].
Turning to `COc1cc(C(=O)Nc2cccc(-c3nc4cc(C)ccc4o3)c2C)cc(OC)c1OC`, the cell number change is -52.2%. Further, the AC50 under setting [2] was 16.4 µM [falling, partial curve]. In addition, under setting [1], the AC50 is 29.1 µM [falling, single point].
Consider `CC(C)(C)c1ccc(C(=O)NC(=O)COC(=O)c2ccco2)cc1`, for which the cell number change is -39%. Further, under setting [2], the AC50 is 4.11 µM [falling, full curve].
For the compound `COc1ccc(CCN2CC(C(=O)O)CC2=O)cc1` (stereo not given), the cell number change was -5.19%.
